The target of this experiment is T1, PIAS4 (SUMO E3), as spotted on the protein array (UniProt Q8N2W9).
T1 sequence: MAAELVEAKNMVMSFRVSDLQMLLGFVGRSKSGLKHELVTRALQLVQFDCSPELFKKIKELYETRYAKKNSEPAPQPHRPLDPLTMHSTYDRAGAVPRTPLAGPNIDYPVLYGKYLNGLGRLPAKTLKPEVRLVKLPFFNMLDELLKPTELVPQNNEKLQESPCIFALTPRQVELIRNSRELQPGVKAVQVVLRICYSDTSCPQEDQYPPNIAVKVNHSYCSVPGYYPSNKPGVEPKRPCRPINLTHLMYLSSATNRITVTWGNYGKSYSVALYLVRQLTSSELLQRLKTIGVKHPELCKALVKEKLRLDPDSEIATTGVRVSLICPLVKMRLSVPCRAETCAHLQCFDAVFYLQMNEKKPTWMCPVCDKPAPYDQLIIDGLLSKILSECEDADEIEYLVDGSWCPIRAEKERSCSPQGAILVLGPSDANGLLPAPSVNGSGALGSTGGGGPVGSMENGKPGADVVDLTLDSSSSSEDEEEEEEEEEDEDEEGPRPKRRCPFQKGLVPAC
Kind of experiment: peptide or protein array.

The chains behind the UniProt entries cited, without tags or fusion partners. Residues count along the entry.
UniProt P55854, residues 1-92: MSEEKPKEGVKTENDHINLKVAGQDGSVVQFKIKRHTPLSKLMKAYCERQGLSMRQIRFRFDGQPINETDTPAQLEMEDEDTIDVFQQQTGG

Results are given in words; binding and its absence hold for the method and conditions named. Some binding calls cover weakened binding; strength is not graded here.

For the substance poly-SUMO-3 (from UniProt P55854 1-92), the binding entry was “binds”.
